This is an account of results in US20180051253A1.

The chains behind the UniProt entries cited, without tags or fusion partners.
UniProt Q9NRC8: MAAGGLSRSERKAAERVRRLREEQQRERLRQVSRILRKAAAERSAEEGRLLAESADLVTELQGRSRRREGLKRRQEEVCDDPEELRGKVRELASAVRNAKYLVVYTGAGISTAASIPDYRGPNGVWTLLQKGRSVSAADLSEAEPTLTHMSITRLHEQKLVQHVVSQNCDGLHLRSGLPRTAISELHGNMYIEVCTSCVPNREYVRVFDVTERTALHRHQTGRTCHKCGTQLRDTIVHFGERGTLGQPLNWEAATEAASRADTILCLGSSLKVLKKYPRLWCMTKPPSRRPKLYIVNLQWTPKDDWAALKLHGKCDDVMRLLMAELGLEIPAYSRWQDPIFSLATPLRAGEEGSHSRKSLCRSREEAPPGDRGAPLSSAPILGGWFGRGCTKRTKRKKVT

These are yes or no findings as the source states them, for the method shown. In cells and extracts the contact can be indirect. Here binding means that the protein was enriched with, or labelled near, the bait; the list need not be complete.

In this test the target is T1, Nuclear Respiratory Factor 1 (NRF1) (UniProt Q16656).
T1 sequence (looked up): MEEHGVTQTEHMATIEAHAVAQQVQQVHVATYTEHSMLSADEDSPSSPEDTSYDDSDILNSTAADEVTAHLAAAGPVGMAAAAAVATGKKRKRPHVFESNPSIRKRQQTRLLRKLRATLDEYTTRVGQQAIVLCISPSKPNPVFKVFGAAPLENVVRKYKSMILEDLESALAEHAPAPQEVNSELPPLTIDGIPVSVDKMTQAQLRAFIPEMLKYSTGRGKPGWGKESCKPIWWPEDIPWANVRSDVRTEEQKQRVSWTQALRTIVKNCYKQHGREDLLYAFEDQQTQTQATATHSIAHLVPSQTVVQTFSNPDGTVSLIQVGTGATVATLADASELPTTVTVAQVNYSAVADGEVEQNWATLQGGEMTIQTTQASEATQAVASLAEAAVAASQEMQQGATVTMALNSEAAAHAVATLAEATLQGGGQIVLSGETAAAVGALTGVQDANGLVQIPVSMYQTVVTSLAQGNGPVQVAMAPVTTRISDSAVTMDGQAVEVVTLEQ
Description: co-immunoprecipitation from 293T cells (Flag-resin); also affinity purification and mass spectrometry of the Flag-SIRT7 interactome.

With “Flag-tagged SIRT7 (from UniProt Q9NRC8 1-400) (enzyme)”, the binding entry was “binds”.
